Laboratory results as given in publication PMC9852476.
No constants are given. Whether binding was seen depends on the method and setting. Binding seen in cells or lysates may run through a third protein. Some results given as binding are weak or reduced against the parent protein; the word gives no strength.

The chains behind the UniProt entries cited, without tags or fusion partners. Residues count along the entry.
UniProt Q99623: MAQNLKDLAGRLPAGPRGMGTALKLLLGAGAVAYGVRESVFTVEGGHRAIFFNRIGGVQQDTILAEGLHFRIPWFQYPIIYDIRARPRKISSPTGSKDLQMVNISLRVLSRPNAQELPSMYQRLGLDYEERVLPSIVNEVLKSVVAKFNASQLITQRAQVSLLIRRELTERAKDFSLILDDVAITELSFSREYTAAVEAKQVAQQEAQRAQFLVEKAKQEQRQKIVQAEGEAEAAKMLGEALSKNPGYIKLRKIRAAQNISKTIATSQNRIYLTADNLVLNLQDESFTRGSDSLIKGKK
UniProt P28331, residues 24-727: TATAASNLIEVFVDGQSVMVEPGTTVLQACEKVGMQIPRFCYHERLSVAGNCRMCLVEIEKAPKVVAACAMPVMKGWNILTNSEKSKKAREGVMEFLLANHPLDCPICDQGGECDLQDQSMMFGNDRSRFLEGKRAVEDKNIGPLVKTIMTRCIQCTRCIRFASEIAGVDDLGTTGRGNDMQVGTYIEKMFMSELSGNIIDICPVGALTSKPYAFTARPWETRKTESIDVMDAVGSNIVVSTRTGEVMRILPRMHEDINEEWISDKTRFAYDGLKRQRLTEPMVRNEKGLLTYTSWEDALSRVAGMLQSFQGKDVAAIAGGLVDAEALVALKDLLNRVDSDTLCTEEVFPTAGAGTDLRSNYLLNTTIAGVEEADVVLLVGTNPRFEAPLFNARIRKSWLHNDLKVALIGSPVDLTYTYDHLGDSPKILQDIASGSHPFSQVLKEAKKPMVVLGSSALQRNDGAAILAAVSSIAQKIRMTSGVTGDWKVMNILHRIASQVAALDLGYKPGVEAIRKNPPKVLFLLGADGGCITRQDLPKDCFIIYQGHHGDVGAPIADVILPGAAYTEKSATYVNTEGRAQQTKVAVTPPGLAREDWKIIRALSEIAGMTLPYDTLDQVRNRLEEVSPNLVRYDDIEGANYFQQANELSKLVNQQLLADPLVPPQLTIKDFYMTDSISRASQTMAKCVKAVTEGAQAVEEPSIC

Tests used:
Flag-PHB2 = Flag-PHB2 (UniProt Q99623); test: co-IP; NCM460 cells co-transfected with Flag-PHB2 and HA-NDUFS1 plasmids; whole-cell lysates, anti-Flag and anti-HA immunoprecipitation, western blot
[1] = molecular target: Prohibitin 2 (PHB2) (human (endogenous in HCT116 and HT-29)) (UniProt Q99623); test: co-IP; endogenous proteins; HCT116 and HT-29 whole-cell lysates (1 mg total protein), target antibody (3 ug) at 4 °C overnight, protein A/G agarose beads 4 h at 4 °C, western blot; IgG as negative control; also cells with control or PHB2 shRNA and with control siRNA
GST-PHB2 = GST-PHB2 (UniProt Q99623); test: pull-down; purified GST-PHB2 incubated with HCT116 and HT-29 cell lysates at 4 °C for 4 h, GST-Tag Purification Resin, elution, western blot; only the target purified

Substance	binding (Flag-PHB2)	binding [1]	binding (GST-PHB2)
HA-NDUFS1 (from UniProt P28331 24-727)	binds	–	–
NADH:ubiquinone oxidoreductase core subunit S1 (NDUFS1) (from UniProt P28331 24-727)	–	binds	binds
